Here are results for 39 molecules from the supplement of paper PMC11098740.

Chains of the proteins cited; added tags and fusions are not shown.
UniProt O14980, whole entry: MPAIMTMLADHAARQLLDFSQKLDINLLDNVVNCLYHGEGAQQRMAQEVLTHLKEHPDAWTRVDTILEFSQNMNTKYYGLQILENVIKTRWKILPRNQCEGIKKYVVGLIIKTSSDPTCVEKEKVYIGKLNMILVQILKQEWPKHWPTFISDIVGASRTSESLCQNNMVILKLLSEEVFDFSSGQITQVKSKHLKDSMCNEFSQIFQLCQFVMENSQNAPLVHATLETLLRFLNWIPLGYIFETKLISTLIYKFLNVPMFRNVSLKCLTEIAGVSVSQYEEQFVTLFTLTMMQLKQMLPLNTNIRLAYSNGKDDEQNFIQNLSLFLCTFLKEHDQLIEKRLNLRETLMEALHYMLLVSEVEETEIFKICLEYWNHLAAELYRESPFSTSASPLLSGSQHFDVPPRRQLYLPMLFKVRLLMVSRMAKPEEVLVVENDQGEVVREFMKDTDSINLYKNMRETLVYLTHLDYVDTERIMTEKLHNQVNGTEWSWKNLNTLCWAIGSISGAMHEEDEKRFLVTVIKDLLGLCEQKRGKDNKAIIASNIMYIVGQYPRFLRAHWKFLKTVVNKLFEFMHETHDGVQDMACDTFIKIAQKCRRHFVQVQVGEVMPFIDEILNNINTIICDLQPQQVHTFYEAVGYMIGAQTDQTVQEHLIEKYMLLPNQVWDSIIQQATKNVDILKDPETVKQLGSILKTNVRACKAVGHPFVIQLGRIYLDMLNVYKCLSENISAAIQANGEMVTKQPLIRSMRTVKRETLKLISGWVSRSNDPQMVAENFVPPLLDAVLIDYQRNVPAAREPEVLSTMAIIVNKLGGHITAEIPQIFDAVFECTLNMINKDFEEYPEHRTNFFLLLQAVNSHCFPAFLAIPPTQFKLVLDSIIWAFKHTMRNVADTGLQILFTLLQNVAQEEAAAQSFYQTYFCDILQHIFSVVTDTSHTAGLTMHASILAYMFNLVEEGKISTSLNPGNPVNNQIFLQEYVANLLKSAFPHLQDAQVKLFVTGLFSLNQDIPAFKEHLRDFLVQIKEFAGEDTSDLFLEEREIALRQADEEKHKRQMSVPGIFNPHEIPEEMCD

± gives the standard deviation of the averaged measurements. The list shows a part of the results. Single values are uncertain, as repeats are few or missing.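 Pooled together, 41 HAP1 clones carry intronic fluorescent tags on 61 cancer-associated proteins, and each clone is recognized by its imaging pattern. Measurements are benchmarked against DMSO-treated control wells. dBET6, a BRD4 degrader, served as the positive control.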 Where a SMILES comes first, the peptide text is derived from it. Bridges are numbered along the chain shown (N, C = ends). [ ]: non-standard residue; d: D form. hArg = N=C(N)NCCCC[C@H](N)C(=O)O; Mpa = O=C(O)CCS

This test addresses XPO1 (intron 15 mScarlet tag, HAP1) (UniProt O14980). Description: XPO1 fluorescence intensity change vs DMSO (log2 fold change); higher = more XPO1 protein. To be noted: 6 h.
For `N[C@@H](CC(=O)N1CCn2c(nnc2C(F)(F)F)C1)Cc1cc(F)c(F)cc1F` [Sitagliptin] (10.0003 µM), the “XPO1 fluorescence intensity change (log2)” value stood at 0.138. Next, `NS(=O)(=O)c1cc(Cl)c(Cl)c(S(N)(=O)=O)c1` [Dichlorphenamide] (10 µM): 0.00444; `COCc1c(C(C)C)nc(C(C)C)c(/C=C/[C@@H](O)C[C@@H](O)CC(=O)O)c1-c1ccc(F)cc1` [Cerivastatin] (10.5 µM): 0.134; `Nc1nc(N)c2nc(CNc3ccc(C(=O)N[C@@H](CCC(=O)O)C(=O)O)cc3)cnc2n1` [Aminopterin] (20 µM): 0.162.

With `N=C(N)NCCCC[C@@H]1NC(=O)CCSSC[C@@H](C(N)=O)NC(=O)[C@@H]2CCCN2C(=O)[C@H](Cc2c[nH]c3ccccc23)NC(=O)[C@H](CC(=O)O)NC(=O)CNC1=O` [Eptifibatide] (10.00039278 µM) ([Mpa][hArg]GDWPC-NH2; disulfide 1-7), the “XPO1 fluorescence intensity change (log2)” value is 0.0335. With `CN(C)[C@@H]1C(O)=C(C(N)=O)C(=O)[C@@]2(O)C(O)=C3C(=O)c4c(O)cccc4[C@@](C)(O)[C@H]3C[C@@H]12` [Tetracycline] (10 µM) the figure was 0.13; with `O=C1[C@H](CC[C@H](O)c2ccc(F)cc2)[C@@H](c2ccc(O)cc2)N1c1ccc(F)cc1` [Ezetimibe] (10.00060281 µM), -0.112; with `NC(=O)NO` [Hydroxyurea] (20 µM), 0.0689. Take `COc1cc(Nc2ncc3c(n2)-c2ccc(Cl)cc2C(c2c(F)cccc2OC)=NC3)ccc1C(=O)O` [Alisertib] (10 µM): the “XPO1 fluorescence intensity change (log2)” value amounted to 0.13. Consider `CC(=O)O[C@]1(C(C)=O)CC[C@H]2[C@@H]3CCC4=CC(=O)CCC4=C3[C@@H](c3ccc(N(C)C)cc3)C[C@@]21C` [Ulipristal Acetate] (9.99909 µM), for which the “XPO1 fluorescence intensity change (log2)” value was -0.16.

For `CC(C)C[C@H](NC(=O)[C@H](Cc1ccccc1)NC(=O)c1cnccn1)B(O)O` [Bortezomib] (0.00595 µM), the “XPO1 fluorescence intensity change (log2)” value was -0.0522 ± 0.075. With `CC1(C)NC(=O)N(c2ccc([N+](=O)[O-])c(C(F)(F)F)c2)C1=O` [Nilutamide] (20 µM) the figure was 0.105; with `CC(C)NCC(O)c1ccc(O)c(O)c1` (centres undefined) [Isoproterenol] (10 µM), -0.138; with `NCCCC(N)(C(=O)O)C(F)F` (centres undefined) [Eflornithine] (10 µM), 0.0661.

For the molecule `N#CC[C@H](C1CCCC1)n1cc(-c2ncnc3[nH]ccc23)cn1` [Ruxolitinib] (20 µM), the “XPO1 fluorescence intensity change (log2)” value was -0.126. With `CC[C@H](Nc1ncnc2[nH]cnc12)c1nc2cccc(F)c2c(=O)n1-c1ccccc1` [Idelalisib] (10 µM) the figure was 0.132. Consider `COc1cc(C(=O)NS(=O)(=O)c2ccccc2C)ccc1Cc1cn(C)c2ccc(NC(=O)OC3CCCC3)cc12` [Zafirlukast] (10.0009 µM), for which the “XPO1 fluorescence intensity change (log2)” value was -0.0637.

As to `O=C(O)C1(C(=O)O)CCC1.[NH2-].[NH2-].[Pt+2]` [Carboplatin] (20 µM), the “XPO1 fluorescence intensity change (log2)” value stood at 0.172.

Consider `CN(C)CCOc1ccc(/C(=C(/CCCl)c2ccccc2)c2ccccc2)cc1` [Toremifene] (20 µM), for which the “XPO1 fluorescence intensity change (log2)” value is -0.0179. Regarding `CC(=O)NCCCS(=O)(=O)O` [Acamprosate] (22.0736 µM), the “XPO1 fluorescence intensity change (log2)” value was determined as 0.137. Next, `CCCN(CCC)S(=O)(=O)c1ccc(C(=O)O)cc1` [Probenecid] (10 µM): 0.123.

With `Clc1ccc2c(c1)C(N1CCNCC1)=Nc1ccccc1O2` [Amoxapine] (10.00000745 µM), the “XPO1 fluorescence intensity change (log2)” value stood at 0.242.

Take `CC(C(=O)O)c1cccc(Oc2ccccc2)c1` (centres undefined) [Fenoprofen] (10 µM): the “XPO1 fluorescence intensity change (log2)” value is 0.0333.

Take `CNS(=O)(=O)Cc1ccc2[nH]cc(CCN(C)C)c2c1` [Sumatriptan] (10.0004 µM): the “XPO1 fluorescence intensity change (log2)” value was -0.122.

For `CCN(CC)C(=S)S` [Sodium Diethyldithiocarbamate Trihydrate] (10 µM), the “XPO1 fluorescence intensity change (log2)” value worked out at 0.0296. With `CNNCc1ccc(C(=O)NC(C)C)cc1` [Procarbazine] (20 µM) the figure was 0.334; with `CCN(CC)CCCC(C)Nc1ccnc2cc(Cl)ccc12` (centres undefined) [Chloroquine] (9.99975 µM), -0.00604; with `CCCCCCCCCCC[C@@H](C[C@@H]1OC(=O)[C@H]1CCCCCC)OC(=O)[C@H](CC(C)C)NC=O` [Orlistat] (10 µM), 0.0299. Next, `O=C1CCc2ccc(OCCCCN3CCN(c4cccc(Cl)c4Cl)CC3)cc2N1` [Aripiprazole] (10.0009 µM): -0.0791; `Nc1nc(F)nc2c1ncn2[C@@H]1O[C@H](COP(=O)(O)O)[C@@H](O)[C@@H]1O` [Fludarabine Phosphate] (20 µM): 0.127; `C/C(O)=C(\C#N)C(=O)Nc1ccc(C(F)(F)F)cc1` [Teriflunomide (A77 1726)] (10 µM): -0.182. With `CO[C@@]12[C@H](COC(N)=O)C3=C(C(=O)C(C)=C(N)C3=O)N1C[C@@H]1N[C@@H]12` [Mitomycin C] (10.00353425 µM) the figure was -0.155; with `CCCCCCCCCCCCCCCCCCOP(=O)([O-])OC1CC[N+](C)(C)CC1` [Perifosine] (20 µM), 0.0265.

Regarding `Nc1c2c(nc3ccccc13)CCCC2` [Tacrine] (9.99926 µM), the “XPO1 fluorescence intensity change (log2)” value amounted to 0.0826. With `C[C@@H]1O[C@@H]1P(=O)(O)O` [Fosfomycin] (10 µM) the figure was 0.11.

As to `Nc1cc(N2CCCCC2)nc(N)[n+]1[O-]` [Minoxidil] (9.95605 µM), the “XPO1 fluorescence intensity change (log2)” value is -0.0141 ± 0.096.

As for `OCCN1C[C@H](O)[C@@H](O)[C@H](O)[C@H]1CO` [Miglitol] (10 µM), the “XPO1 fluorescence intensity change (log2)” value came out at 0.0895. With `C[C@](N)(Cc1ccc(O)c(O)c1)C(=O)O` [Methyldopa] (10 µM) the figure was 0.0557. Turning to `CCNC(=O)[C@@H]1CCCN1C(=O)[C@H](CCCNC(=N)N)NC(=O)[C@H](CC(C)C)NC(=O)[C@@H](CC(C)C)NC(=O)[C@H](Cc1ccc(O)cc1)NC(=O)[C@H](CO)NC(=O)[C@H](Cc1c[nH]c2ccccc12)NC(=O)[C@H](Cc1c[nH]cn1)NC(=O)[C@@H]1CCC(=O)N1` [Leuprolide] (20 µM), the “XPO1 fluorescence intensity change (log2)” value is -0.0924.
